Drawing on paper PMC10353892, this text covers binding for four molecules.

Results are given in words; binding and its absence hold for the method and conditions named. In cells and extracts the contact can be indirect. Some binding calls cover weakened binding; strength is not graded here. Tags and fused reporters may be left off the sequences shown.

For test [1], the target named is T1, GFP-Ote 1–400 (Drosophila) (UniProt P20240).
T1 sequence: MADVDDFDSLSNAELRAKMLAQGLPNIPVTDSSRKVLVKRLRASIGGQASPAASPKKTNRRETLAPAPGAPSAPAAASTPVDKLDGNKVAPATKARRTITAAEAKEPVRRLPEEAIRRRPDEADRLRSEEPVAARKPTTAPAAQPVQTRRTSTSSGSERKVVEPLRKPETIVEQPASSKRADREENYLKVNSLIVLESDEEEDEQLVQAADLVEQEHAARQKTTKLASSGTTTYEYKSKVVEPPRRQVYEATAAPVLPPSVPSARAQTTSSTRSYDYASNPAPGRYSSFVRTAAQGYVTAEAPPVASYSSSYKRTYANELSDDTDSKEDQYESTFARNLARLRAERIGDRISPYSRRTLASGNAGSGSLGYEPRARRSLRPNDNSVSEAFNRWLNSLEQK
The test can be described thus: co-IP; GFP-Trap agarose on lysates of transfected D-Mel cells; 20 mM Tris-HCl pH 7.5, 150 mM NaCl, 2 mM MgCl2, 0.5% NP40 Substitute, 4°C; Western blot.

In test [2] the target is T2, GFP-Ote 1–70 (Drosophila) (UniProt P20240).
T2 sequence: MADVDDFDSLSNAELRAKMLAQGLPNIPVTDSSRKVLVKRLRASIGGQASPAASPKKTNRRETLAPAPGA
The description is as above.

The target in test [3] is T3, Myc-BAF (Drosophila) (UniProt Q9VLU0).
T3 sequence: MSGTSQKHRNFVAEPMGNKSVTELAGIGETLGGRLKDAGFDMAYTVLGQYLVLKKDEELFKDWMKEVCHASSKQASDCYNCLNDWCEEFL
As to the kind of experiment: co-IP; anti-Myc 9E10 and Protein G Dynabeads on lysates of transfected D-Mel cells; 50 mM Tris-HCl pH 7.5, 150 mM NaCl, 0.2% Triton X-100, 4°C; Western blot.

In test [4] the target is T3, Myc-BAF (Drosophila). As to the kind of experiment: co-IP; as a2, after RNAi silencing of Tws.
The target of test [5] is T4, GFP-Ote 42–400 (Drosophila) (UniProt P20240).
T4 sequence: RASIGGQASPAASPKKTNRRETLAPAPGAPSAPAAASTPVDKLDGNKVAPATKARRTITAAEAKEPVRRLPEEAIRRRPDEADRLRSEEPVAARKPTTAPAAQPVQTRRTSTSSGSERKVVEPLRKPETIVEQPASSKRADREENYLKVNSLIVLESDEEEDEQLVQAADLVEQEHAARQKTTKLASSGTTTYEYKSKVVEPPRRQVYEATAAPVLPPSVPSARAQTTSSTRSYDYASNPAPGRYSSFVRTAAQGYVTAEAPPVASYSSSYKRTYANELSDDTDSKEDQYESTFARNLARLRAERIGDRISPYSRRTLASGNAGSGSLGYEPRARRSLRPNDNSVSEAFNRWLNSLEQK
As to the kind of experiment: co-IP; GFP-Trap agarose on lysates of transfected D-Mel cells; 20 mM Tris-HCl pH 7.5, 150 mM NaCl, 2 mM MgCl2, 0.5% NP40 Substitute, 4°C; Western blot.

In test [6] the target is T5, GFP-Ote^WT (D-Mel cells) (Drosophila) (UniProt P20240).
T5 sequence: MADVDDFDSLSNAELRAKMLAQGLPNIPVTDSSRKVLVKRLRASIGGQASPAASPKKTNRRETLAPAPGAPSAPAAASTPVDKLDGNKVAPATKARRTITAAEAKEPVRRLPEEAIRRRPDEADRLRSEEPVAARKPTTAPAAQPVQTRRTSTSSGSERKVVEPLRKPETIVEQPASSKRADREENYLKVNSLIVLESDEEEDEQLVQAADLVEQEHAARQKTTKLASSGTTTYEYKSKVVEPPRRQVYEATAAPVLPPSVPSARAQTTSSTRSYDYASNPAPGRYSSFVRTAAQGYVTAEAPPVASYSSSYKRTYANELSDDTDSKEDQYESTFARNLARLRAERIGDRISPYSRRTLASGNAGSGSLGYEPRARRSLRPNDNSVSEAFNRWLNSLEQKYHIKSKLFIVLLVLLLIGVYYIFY
Described as above.

The target in test [7] is T6, GFP-Ote 42–400 with the phosphomimetic mutations (Drosophila) (UniProt P20240).
T6 sequence: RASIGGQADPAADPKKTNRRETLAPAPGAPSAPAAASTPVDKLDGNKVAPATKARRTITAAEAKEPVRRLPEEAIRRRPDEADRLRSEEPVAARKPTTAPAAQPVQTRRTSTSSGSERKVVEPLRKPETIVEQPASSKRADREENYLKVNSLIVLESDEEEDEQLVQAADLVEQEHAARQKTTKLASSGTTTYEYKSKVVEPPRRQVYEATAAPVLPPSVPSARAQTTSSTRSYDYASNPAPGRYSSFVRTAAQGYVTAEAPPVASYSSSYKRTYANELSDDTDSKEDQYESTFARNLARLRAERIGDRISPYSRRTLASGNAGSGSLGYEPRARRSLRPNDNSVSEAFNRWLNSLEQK
The description is as above.

B1: Myc-BAF (protein, UniProt Q9VLU0 1-90)
chain: MSGTSQKHRNFVAEPMGNKSVTELAGIGETLGGRLKDAGFDMAYTVLGQYLVLKKDEELFKDWMKEVCHASSKQASDCYNCLNDWCEEFL
Turning to B1, the binding entry in test [1] and in test [2] was “binds” each time.

B2: GFP-Ote^WT (D-Mel cells) (protein, UniProt P20240 1-424)
chain: MADVDDFDSLSNAELRAKMLAQGLPNIPVTDSSRKVLVKRLRASIGGQASPAASPKKTNRRETLAPAPGAPSAPAAASTPVDKLDGNKVAPATKARRTITAAEAKEPVRRLPEEAIRRRPDEADRLRSEEPVAARKPTTAPAAQPVQTRRTSTSSGSERKVVEPLRKPETIVEQPASSKRADREENYLKVNSLIVLESDEEEDEQLVQAADLVEQEHAARQKTTKLASSGTTTYEYKSKVVEPPRRQVYEATAAPVLPPSVPSARAQTTSSTRSYDYASNPAPGRYSSFVRTAAQGYVTAEAPPVASYSSSYKRTYANELSDDTDSKEDQYESTFARNLARLRAERIGDRISPYSRRTLASGNAGSGSLGYEPRARRSLRPNDNSVSEAFNRWLNSLEQKYHIKSKLFIVLLVLLLIGVYYIFY
As for B2, the figures for the binding entry with Myc-BAF (Drosophila) [3] and with Myc-BAF (Drosophila) [4] were “binds” and “no binding (condition: after RNAi silencing of Tws)”, respectively.

B3: GFP-Ote^AA (D-Mel cells) (protein, UniProt P20240 1-424)
chain: MADVDDFDSLSNAELRAKMLAQGLPNIPVTDSSRKVLVKRLRASIGGQAAPAAAPKKTNRRETLAPAPGAPSAPAAASTPVDKLDGNKVAPATKARRTITAAEAKEPVRRLPEEAIRRRPDEADRLRSEEPVAARKPTTAPAAQPVQTRRTSTSSGSERKVVEPLRKPETIVEQPASSKRADREENYLKVNSLIVLESDEEEDEQLVQAADLVEQEHAARQKTTKLASSGTTTYEYKSKVVEPPRRQVYEATAAPVLPPSVPSARAQTTSSTRSYDYASNPAPGRYSSFVRTAAQGYVTAEAPPVASYSSSYKRTYANELSDDTDSKEDQYESTFARNLARLRAERIGDRISPYSRRTLASGNAGSGSLGYEPRARRSLRPNDNSVSEAFNRWLNSLEQKYHIKSKLFIVLLVLLLIGVYYIFY
B3: the binding result with Myc-BAF (Drosophila) [3] is “binds”; with Myc-BAF (Drosophila) [4], “no binding (condition: after RNAi silencing of Tws)”.

B4: Myc-Ote (protein, UniProt P20240 1-424)
chain: MADVDDFDSLSNAELRAKMLAQGLPNIPVTDSSRKVLVKRLRASIGGQASPAASPKKTNRRETLAPAPGAPSAPAAASTPVDKLDGNKVAPATKARRTITAAEAKEPVRRLPEEAIRRRPDEADRLRSEEPVAARKPTTAPAAQPVQTRRTSTSSGSERKVVEPLRKPETIVEQPASSKRADREENYLKVNSLIVLESDEEEDEQLVQAADLVEQEHAARQKTTKLASSGTTTYEYKSKVVEPPRRQVYEATAAPVLPPSVPSARAQTTSSTRSYDYASNPAPGRYSSFVRTAAQGYVTAEAPPVASYSSSYKRTYANELSDDTDSKEDQYESTFARNLARLRAERIGDRISPYSRRTLASGNAGSGSLGYEPRARRSLRPNDNSVSEAFNRWLNSLEQKYHIKSKLFIVLLVLLLIGVYYIFY
As to B4, the binding result in test [5], in test [1], in test [6], in test [7] and in test [2] was “binds” throughout.
